Entries after “also recorded” stand apart in the source; their conditions may differ.
Key:
[1] = tested on: P18IIIB-I10 peptide-pulsed 51Cr labeled P815 targets; experiment: CTL 51Cr release assay with PP, LP or SP effector cells of immunized mice; type: in vivo, BALB/c mice; details: for P18-specific CTL response in intestinal PP and spleen: weekly for four weeks, day 35 or six months
[2] = tested on: 15-12 cells (BALB/c 3T3 fibroblasts transfected with HIV-1IIIB gp160); experiment: CTL 51Cr release assay on targets endogenously expressing HIV-1 gp160; type: in vivo, BALB/c mice; details: CTL elicited by IR immunization
Description: Three different cell lines were used as target cells: 15-12 cells, 3T3 18 Neo BALB/c cells and P815 cells. 15-12 cells are BALB/c 3T3 fibroblasts transfected with a vector encoding HIV-1 gp160 (Takahashi et al. Proc. Natl. Acad. Sci. USA 8:3105 (1988)); 3T3 18 Neo BALB/c cells are BALB/c 3T3 fibroblasts transfected with an expression vector containing a Neor gene but no gp160 gene; and P815 cells are untransfected cells that present antigenic peptides added to the culture. CTL lysis of gp160 expressing 15-12 cells (closed squares in right panels) was compared to that of control gp160 non-expressing 3T3 18 Neo BALB/c cells (open diamonds right panels). […] The percent specific 51Cr release was calculated as described above. […]
Cytotoxic T lvmphocyte assay Immune cells from SP, PP, LP were cultured at 5×10^6 per/milliliter in 24-well culture plates in complete T cell medium (CTM): RPMI 1640 containing 10% FBS, 2 mM L-glutamine, penicillin (100 U/ml), streptomycin (100 μg/ml), and 5×10^−5 M 2-mercaptoethanol. […] Cytolytic activity of CTL lines was measured by a 4-hour assay with ^51Cr labeled targets. […] The percent specific ^51Cr release was calculated as 100× (experimental release-spontaneous release)/(Maximum release-spontaneous release). Maximum release was determined from supernatants of cells that were lysed by addition of 5% Triton-X 100. […]

[3] = tested on: vaccinia virus expressing gp160 IIIB (vPE16); set-up: species or system BALB/c mice; details: mouse, in vivo
[4] = tested on: vaccinia virus expressing β-galactosidase (vSC8); set-up: species or system BALB/c mice; details: mouse, in vivo
[5] = tested on: mucosal P18-specific CD8+ CTL; experiment: IFNγ production by mucosal CD8+ CTL after stimulation with specific peptide in vitro; type: cell-based, BALB/c mice; details: stimulation with specific peptide in vitro for 48 hours
Description: The difference may reflect a higher affinity of the minimal 10-mer P18IIIB-I10, compared to P18MN-T10, for H-2D^d (Takahashi et al., Science 246:118-121 (1989); Takeshita et al., J. Immunol. 154:1973-1986 (1995)). […] On the basis of these observations, the PCLUS3-18IIIB construct was used in the protection experiments described below.

[6] = IR, 50 μg/mouse x4 with CT 1 μg/mouse, day 35

KQIINMWQEVGKAMYAPPISGQIRRIHIGPGRAFYTTKN [PCLUS3-18MN]
level of CTL response compared with IR immunization with PCLUS3-18IIIB ([1]; IR with CT): significantly lower | P18-specific CTL response in intestinal PP and spleen ([1]; IR with CT): induces a P18-specific CTL response

KQIINMWQEVGKAMYAPPISGQIRRIQRGPGRAFVTIGK [PCLUS3-18IIIB]
level of splenic CTL activity, IR versus IN immunization ([1]; 50 μg/mouse x4, SP, six months after first dose): higher than that induced by IN immunization | CTL activity after immunization via all three mucosal routes (IR, IN, IG) ([1]; 50 μg/mouse x4, day 35): detected in both PP and SP | level of CTL activity in PP, IR versus other mucosal routes (IN and IG) ([1]; 50 μg/mouse x4, day 35): significantly higher | level of CTL activity in SP, IR versus other mucosal routes (IN and IG) ([1]; 50 μg/mouse x4, day 35): much higher | CTL activity after systemic immunization (SC) ([1]; 50 μg/mouse x4, day 35, PP and SP): only resulted in significant CTL activity in SP | P18-specific CTL response in intestinal PP and spleen ([1]; IR with CT): induces a P18-specific CTL response | CTL response, peptide alone ([1]; IR, 50 μg/mouse x4, no adjuvant or cytokine, day 35, PP, LP, SP): induced a significant response | CTL activity in SP, PP and LP cells from IFNγ−/− mice [1, 6]: lack of detectable CTL activity | CTL activity in SP, PP and LP cells from wild-type BALB/c mice [1, 6]: potent CTL activity | time after immunization at which antigen-specific CTL were still detected in PP, LP and SP ([1]; IR, 4 doses 50 μg/mouse, days 0, 7, 14, 21): at least 6 months | CTL response with co-administration of CT, relative to peptide alone ([1]; IR, peptide in combination with CT, day 35, PP, LP, SP): enhanced | induction of CTL after systemic immunization ([1]; s.c. in incomplete Freund's adjuvant, PP, LP, SP): induced CTL in the spleen but not in the mucosal immune system | killing of 15-12 gp160 IIIB-transfected fibroblast targets [2]: killed these targets | protection against IR challenge with vPE16 6 months after immunization [3]: exhibit protection | protection against IR challenge with vPE16, IR immunization [3]: protected mice; also recorded: did protect | protection against mucosal challenge with vPE16, SC immunization [3]: did not protect | reduction in viral pfu [3]: 4 log | reduction in viral pfu in ovaries compared to unimmunized animals [3]: 4.5 log | protection against IR challenge with vSC8 [4]: did not protect | production of IFNγ by mucosal specific CD8+ CTL, P18IIIB-specific compared to P18-MN-specific [5]: much higher production of IFNγ

— US6749856B1, “Mucosal cytotoxic T lymphocyte responses” (priority 1997, dated 2004)
